Laboratory results reported in US20190085041A1.
Results are given in words; binding and its absence hold for the method and conditions named. Some results given as binding are weak or reduced against the parent protein; the word gives no strength. Where a sequence is shown, tags or fusion partners need not be part of it.

Protein sequences, listed by entry. Tags and fused reporters are not part of them. Residues count along the entry.
UniProt P05067, residues 672-713: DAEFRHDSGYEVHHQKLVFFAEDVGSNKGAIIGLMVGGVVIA

Columns and labels:
[1] = biological target: Aβ protein (Human, 1-42) (Human) (UniProt P05067); test: conclusion of Example 5 from the co-incubation and western blot results
[2] = biological target: Aβ protein (Human, 1-42) (Human) (UniProt P05067); test: co-incubation, SDS-PAGE, western blot with V5-HRP (FIG. 6B)
[3] = biological target: Aβ protein (Human, 1-42) (Human) (UniProt P05067); test: co-incubation at 4 °C overnight, SDS-PAGE, western blot with Aβ antibody and V5-HRP
[4] = biological target: Aβ protein (Human, 1-42) (Human) (UniProt P05067); test: co-incubation, SDS-PAGE, western blot with Aβ antibody (FIG. 6A)

binding [1]: binds
binding [2]: binds
binding [3]: binds
binding [4]: binds
B1: His×6-V5-sDSS1 protein (protein, not shown: small tags and cut ends)
chain: MSEKKQPVDLGLLEEDDEFEEFPAEDWAGLDEDEDAHVWEDNWDDDNVEDDFSNQLRATVLLMILVCETPYGCYVLHQKGRMCSAFLCC
